Measured data: PubChem BioAssay AID1259424 (University of Nebraska Medical Center, 2018)

- Aim: 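Find knockdowns that reproduce the expression shifts seen after KSR1 loss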 (primary screen)
- Cells: human HCT116 colon cancer cells
- Reagent: siRNA pool against human genes, 50 nM
- Measurement: 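Log2 levels of six mRNAs (branched-DNA multiplex), adjusted by two reference genes and the non-targeting median, then scored against the average KSR1 knockdown pattern as Pearson r and euclidean distance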
- Direction: mean correlation with KSR1 profile and KSR1 correlation: higher = expression change more like KSR1 knockdown; mean distance from KSR1 profile: higher = expression change less like KSR1 knockdown
This is one part, drawn at random, of about 14,000 deposited reagents. 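Higher correlation or smaller distance means closer resemblance to KSR1 loss; control wells, including KSR1 knockdowns, recur on many plates.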 Reagents against one gene are numbered here. A reagent listed more than once was tested more than once; the source does not tell the runs apart. Not stated in the record: the time to read-out.

gene knocked down | reagent no. | mean correlation with KSR1 profile | mean distance from KSR1 profile | KSR1 correlation, replicate 1 | KSR1 correlation, replicate 2 | KSR1 correlation, replicate 3
TMCC1 | 1 | -0.506 | 2.01 | -0.508 | -0.733 | -0.676
ZNF426 | 1 | -0.513 | 1.75 | -0.58 | -0.764 | -0.432
KDELR1 | 1 | -0.226 | 1.85 | -0.266 | -0.22 | 0.0179
KRTAP5-8 | 1 | -0.314 | 3.35 | -0.365 | -0.0206 | -0.209
SUSD1 | 1 | -0.575 | 1.43 | -0.597 | -0.865 | -0.542
TRIM33 | 1 | -0.0855 | 1.73 | -0.371 | -0.0205 | -0.118
HOMER3 | 1 | -0.0344 | 1.9 | 0.0037 | 0.0124 | 0.0558
CCDC102B | 1 | 0.292 | 2.77 | 0.238 | 0.365 | 0.33
SLC49A4 | 1 | -0.365 | 2.79 | -0.34 | -0.525 | -0.437
GRM4 | 1 | 0.733 | 1.25 | 0.593 | 0.807 | 0.645
TFF3 | 1 | -0.65 | 1.61 | -0.52 | -0.714 | -0.399
GZMK | 1 | 0.447 | 1.96 | 0.36 | 0.385 | 0.529
MUC2 | 1 | 0.847 | 2.06 | 0.767 | 0.89 | 0.621
GSC2 | 1 | 0.195 | 2.77 | -0.126 | -0.399 | 0.32
EIF4A1 | 1 | 0.341 | 1.2 | 0.0336 | 0.369 | 0.671
ANKRD11 | 1 | -0.56 | 1.71 | -0.815 | -0.59 | -0.577
PTPRS | 1 | 0.0613 | 1.8 | 0.158 | -0.0944 | -0.0884
PLEC | 1 | 0.188 | 1.19 | 0.344 | 0.174 | -0.171
PKN1 | 1 | 0.638 | 1.89 | 0.673 | 0.66 | 0.79
PCDH11X | 1 | 0.425 | 1.69 | 0.217 | 0.209 | 0.39
DSCR4 | 1 | 0.183 | 1.93 | 0.3 | -0.0128 | 0.132
TFPT | 1 | -0.719 | 3.47 | -0.678 | -0.67 | -0.837
MSX1 | 1 | -0.506 | 2.1 | -0.16 | 0.23 | -0.559
CAPNS2 | 1 | 0.275 | 2.61 | 0.132 | 0.183 | 0.405
TAGLN2 | 1 | 0.309 | 2.41 | 0.377 | 0.333 | 0.264
PTRH2 | 1 | 0.113 | 2.83 | 0.375 | -0.0695 | 0.109
RPP21 | 1 | 0.442 | 1.37 | 0.421 | 0.538 | 0.335
ARHGAP35 | 1 | 0.501 | 1.44 | 0.438 | 0.842 | 0.344
CD81 | 1 | -0.255 | 3.04 | -0.225 | -0.307 | -0.00395
EIF4EBP2 | 1 | 0.85 | 1.11 | 0.91 | 0.626 | 0.821
SCN7A | 1 | -0.869 | 2.9 | -0.873 | -0.847 | -0.783
MVP | 1 | -0.651 | 3.02 | -0.672 | -0.667 | -0.595
OPRM1 | 1 | 0.942 | 2.3 | 0.993 | 0.969 | 0.703
CDKL2 | 1 | 0.425 | 2.49 | 0.486 | 0.461 | 0.189
PCDHA11 | 1 | 0.218 | 3.08 | 0.165 | 0.21 | 0.161
VOPP1 | 1 | 0.241 | 2.97 | 0.0501 | 0.252 | 0.281
ZMYM3 | 1 | -0.0571 | 3.26 | 0.0883 | 0.0607 | -0.126
MAP3K19 | 1 | 0.581 | 2.22 | 0.541 | 0.646 | 0.0907
SIRT4 | 1 | -0.532 | 2.92 | -0.448 | -0.52 | -0.519
EVL | 1 | 0.162 | 2.16 | 0.383 | 0.272 | -0.18
SLC35B4 | 1 | 0.278 | 2.2 | 0.022 | 0.453 | 0.163
CNOT8 | 1 | 0.0256 | 2.83 | -0.17 | 0.208 | -0.0829
PAGR1 | 1 | 0.211 | 1.78 | 0.397 | 0.367 | 0.014
CEP290 | 1 | 0.631 | 1.45 | 0.551 | 0.597 | 0.681
CEP290 | 2 | -0.351 | 2.7 | -0.316 | -0.257 | -0.347
RHBDL1 | 1 | -0.695 | 1.19 | -0.611 | -0.591 | -0.383
WDR12 | 1 | -0.325 | 1.6 | -0.409 | -0.275 | 0.00339
MBP | 1 | -0.489 | 4.78 | -0.394 | -0.544 | -0.492
ADCY7 | 1 | 0.103 | 4.3 | 0.0665 | -0.00335 | 0.0645
RIPK3 | 1 | 0.399 | 2.76 | 0.556 | 0.322 | 0.321
ATOH1 | 1 | -0.2 | 1.94 | -0.0209 | -0.097 | -0.285
LIMS1 | 1 | -0.759 | 2.44 | -0.767 | -0.933 | -0.86
KCNIP3 | 1 | 0.579 | 1.09 | 0.856 | 0.652 | 0.17
PCDH1 | 1 | 0.381 | 1.84 | 0.139 | 0.484 | -0.016
MID2 | 1 | -0.168 | 1.9 | -0.164 | -0.252 | 0.00449
PKIB | 1 | 0.731 | 5.19 | 0.623 | 0.625 | 0.879
DCLRE1C | 1 | 0.285 | 1.31 | 0.232 | 0.333 | 0.103
ATG2A | 1 | 0.632 | 1.85 | 0.797 | 0.556 | 0.365
FYB1 | 1 | 0.0384 | 2.66 | 0.0121 | -0.0367 | -0.0927
HP | 1 | 0.0182 | 2.81 | -0.0746 | -0.0872 | -0.0549
PRKCB | 1 | 0.197 | 2.61 | 0.483 | 0.417 | -0.155
AGTR2 | 1 | 0.493 | 1.65 | 0.595 | 0.402 | 0.465
AGTR2 | 1 | -0.0132 | 2.17 | -0.0562 | -0.113 | -0.0363

Part of the list above, showing only “KSR1 correlation, replicate 3”:
DSCR4	0.132
TFPT	-0.837
MSX1	-0.559
CAPNS2	0.405
TAGLN2	0.264
PTRH2	0.109
RPP21	0.335
ARHGAP35	0.344
